Earlier results in patent US12655099B2, “Substituted phenyl sulfide compound and application thereof” (SHENYANG SINOCHEM AGROCHEMICALS R&D CO., LTD., priority 2020, dated 2026).
Some results were stated once for a whole list of compounds, not compound by compound.

System: two-spotted spider mites
Conditions: concentration of 500 ppm; cited from earlier work

For Cc1cc(F)c(-c2ccc(C(F)(F)F)cc2)cc1SCC(F)(F)F [KC1, reference compound], which lethal activity is on record?
The lethal activity was “more than 90%”.

With Cc1cc(F)c(-c2cccc(C(F)(F)F)c2)cc1SCC(F)(F)F [KC2, reference compound] as the compound, how does the lethal activity read?
The lethal activity was “more than 90%”.

For Cc1cc(F)c(-c2cccc(OC(F)(F)F)c2)cc1SCC(F)(F)F [KC3, reference compound], which lethal activity is on record?
Its lethal activity is “more than 90%”.
